Laboratory results published in patent US20010029022A1.
Results are given in words; binding and its absence hold for the method and conditions named. Binding seen in cells or lysates may run through a third protein. Some entries that bind do so weakly or less than the wild type.

Amino acid sequences for entries named in this document (tags omitted).
UniProt P38936: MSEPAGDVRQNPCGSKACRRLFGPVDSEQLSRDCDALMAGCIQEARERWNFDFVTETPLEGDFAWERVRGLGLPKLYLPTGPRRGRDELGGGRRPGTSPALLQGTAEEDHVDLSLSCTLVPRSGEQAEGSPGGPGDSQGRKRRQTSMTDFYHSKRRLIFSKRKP
UniProt P46527: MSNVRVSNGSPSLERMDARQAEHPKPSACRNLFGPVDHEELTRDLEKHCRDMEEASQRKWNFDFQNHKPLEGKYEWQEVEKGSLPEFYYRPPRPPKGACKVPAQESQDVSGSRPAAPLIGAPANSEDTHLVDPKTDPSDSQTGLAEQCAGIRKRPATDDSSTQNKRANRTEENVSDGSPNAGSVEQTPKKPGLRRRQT
UniProt P03129: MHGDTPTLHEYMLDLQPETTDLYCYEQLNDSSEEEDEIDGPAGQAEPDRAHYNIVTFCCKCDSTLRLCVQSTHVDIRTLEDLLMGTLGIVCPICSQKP

Legend:
His-p21 [1] = biological target: His-p21 (UniProt P38936); assay: GST pull-down on glutathione-agarose beads, SDS-PAGE, Coomassie blue and Western blot
His-p27 (human) [2] = biological target: His-p27 (human) (UniProt P46527); assay: as above
His-p21 [3] = biological target: His-p21 (UniProt P38936); assay: summary of the filing's own results in Example 2 (GST pull-down of Example 1)
His-p27 (human) [4] = biological target: His-p27 (human) (UniProt P46527); assay: as above

Measured: binding

GST-HPV16 E7 (from UniProt P03129 1-98)
binds: His-p21 [1] | His-p27 (human) [2] | His-p21 [3] | His-p27 (human) [4]
